The other results are listed elsewhere or left out. Shown are side measurements of this screen, not its main read-out; they come without a call. The list favours compounds with an active or inconclusive main result. The note in brackets gives the kind of curve behind each potency; many fits are weak.
Assay: Cell signaling CRE-BLA (Fsk stim)
Settings: CHO CRE-bla reporter (cAMP response element driving beta-lactamase), forskolin EC10, beta-lactamase ratio; measured here: 460 nm blue channel
Outline: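 The 460nm/530nm emission ratio after CCF4 loading defined %Activity, from which AC50 values were obtained. CRE-bla CHO cells received compound dilution series together with an EC10 level of NKH 477 for 3 hours at 37 degrees Celsius.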

| Compound | AC50 |
| --- | --- |
| Cc1cnc(CNc2ncnc3ccc(-c4ccc(N(C)C)cc4)cc23)cn1 | 6.31 µM [rising, partial curve] |
| CCNc1ncc2nc(-c3ccc(F)cc3)c(=O)n(C)c2n1 | 15.8 µM [rising, partial curve] |
| Cc1ccc(S(=O)(=O)c2nc(S(C)(=O)=O)sc2N(C)C)cc1 | 0.158 µM [rising, full curve, poor fit] |
| CN(C)c1nc2c(c(=O)[nH]c(=O)n2C)n1Cc1ccc(F)cc1 | 10 µM [rising, partial curve] |
| CCOc1ccc2nc(NC(=O)CN3CCC(n4nnc5cc(F)ccc54)CC3)sc2c1 | 25.1 µM [falling, single point] |
| O=S(=O)(Nc1ccc(-c2nc3cccnc3s2)cc1)c1cccs1 | 3.16 µM [rising, partial curve] |
| O=C(O)CCC(=O)NCCn1c(-c2ccccc2)csc1=Nc1ccccc1 | 0.0631 µM [falling, full curve] |
| Cc1ccc2cc(C#N)c(NCCNC(=O)C3CC3)nc2c1C | 5.01 µM [rising, partial curve] |
| O=c1[nH]c(Cc2cccs2)nc2ccccc12 | 0.00316 µM [falling, full curve, poor fit] |
| O=C(CCn1c(=O)[nH]c2ccsc2c1=O)N1CCc2ccccc2C1 | 0.398 µM [falling, full curve] |
| CC1CCN(C(=O)C2CCN(C(=O)c3cc4sccc4n3Cc3ccc(F)cc3)CC2)CC1 | 0.0398 µM [rising, full curve, poor fit] |
| COCCn1c(=O)c(-c2cn(C)c3ccccc23)nc2cnc(Oc3cccc(Cl)c3)nc21 | 3.16 µM [rising, partial curve] |
| CS(=O)(=O)c1ccc(Cl)c(NC(=O)C2CC(=O)N(Cc3ccccc3)C2)c1 (configuration not stated) | 0.631 µM [rising, partial curve, poor fit] |
| CCOC(=O)c1ccc(NC(=O)c2ccc(C)c(S(=O)(=O)N3CCOCC3)c2)cc1 | 0.00316 µM [falling, full curve, poor fit] |
| CC1CC(C)CN(CCCNC(=O)c2ccc3c(c2)NC(=O)C(N2CCCCC2)S3)C1 (configuration not stated) | 0.2 µM [falling, partial curve] |
| O=C(c1cccn2c(=O)c3ccc(Cl)cc3nc12)N1CCN(Cc2ccc3c(c2)OCO3)CC1 | 12.6 µM [rising, partial curve] |
| CC(C)N(Cc1nc(-c2ccccc2)no1)C(=O)c1ccc(Cl)cc1 | 25.1 µM [falling, single point] |
| COc1ccc(S(=O)(=O)N2CCc3ccccc32)cc1C(=O)OCc1nnc(-c2ccccc2)o1 | 0.398 µM [falling, partial curve] |
| CC(C)CCn1c(=S)[nH]c2ncccc2c1=O | 0.00316 µM [rising, full curve, poor fit] |
| CC(=O)C(C)Oc1ccc2c3c(c(=O)oc2c1)CCCC3 (configuration not stated) | 10 µM [rising, partial curve] |
| CCCn1c(-c2ccc(F)cc2)nc2c(NCC3CCCN3CC)nc(C)nc21 (configuration not stated) | 10 µM [rising, partial curve] |
| COc1ccccc1CN1CC(C(=O)NCC2CCCO2)CC1=O (configuration not stated) | 5.01 µM [falling, single point] |
| CCOC(=O)c1sc(NC(=O)c2ccc(Cl)s2)cc1C | 10 µM [rising, partial curve] |

| Compound | AC50 |
| --- | --- |
| CCCC(=O)Nc1cccn(Cc2ccccc2Br)c1=O | 0.794 µM [falling, partial curve] |
| COCCn1c(=O)c(-c2cn(C)c3ccccc23)nc2cnc(Oc3ccc(OC)cc3)nc21 | 12.6 µM [rising, partial curve] |
| Cn1nc(-c2ccc(Cl)cc2)c2cc(C(=O)N3CCOCC3)sc21 | 5.01 µM [rising, full curve] |
| NC(=O)C1(N2CCCCC2)CCN(C(=O)c2ccccc2)CC1 | 12.6 µM [rising, partial curve] |
| CCNC(=O)C1CC(=O)N(CC)C(=Nc2cc(Cl)c(O)c(Cl)c2)S1 (configuration not stated) | 0.1 µM [falling, single point] |
| COc1cccc(C2/C(=C(/O)c3ccc(F)cc3)C(=O)C(=O)N2CCN(C)C)c1 (configuration not stated) | 0.2 µM [rising, full curve, poor fit] |
| c1ccc(OCc2nn3c(-c4n[nH]c5c4CCC5)nnc3s2)cc1 | 15.8 µM [rising, partial curve] |
| Cc1cc(N(C)Cc2ccccc2)nc(-c2ccccc2)n1 | 5.01 µM [falling, single point] |
| CCn1c(=S)sc2c(=O)n(-c3ccccc3)c(SCC(=O)NCc3ccco3)nc21 | 10 µM [rising, partial curve, poor fit] |
| O=C(c1ccco1)N1CCN(C(=O)c2cc(-c3ccccn3)nc3ccccc23)CC1 | 3.98 µM [falling, single point] |
| CCOC(=O)c1sc(NC(=O)C2CCCO2)c(C(=O)OCC)c1C (configuration not stated) | 3.98 µM [rising, full curve, poor fit] |
| CCn1cc(C(=O)NCc2ccc(C)o2)c2cc(OC)c(OC)cc2c1=O | 1.58 µM [rising, full curve] |
| Cc1ccccc1-c1nccc(-n2ccnc2)n1 | 10 µM [rising, partial curve] |
| CCC(C(=O)O)n1c(C(F)(F)F)nc2ccccc21 (configuration not stated) | 31.6 µM [falling, single point] |
| COCc1[nH]nc2c1C(C1C=CCCC1)C(C#N)=C(N)O2 (configuration not stated) | 0.01 µM [falling, full curve, poor fit] |
| CC(C)Cn1c2nc3ccccc3nc2c2c(=O)n(CCN3CCOCC3)cnc21 | 10 µM [rising, single point] |
| COc1cc2c(cc1OC)-c1cc(NC3CC3)nc(=O)n1CC2 | 10 µM [rising, partial curve] |
| Cc1[nH]nc2c1C(c1cn[nH]c1-c1ccc(F)cc1)C(C#N)=C(N)O2 (configuration not stated) | 1.26 µM [falling, full curve] |
| CN(C)S(=O)(=O)c1ccc(N2CCCC2)c(C(=O)Nc2ccccc2N2CCOCC2)c1 | 25.1 µM [rising, single point] |
| CCOC(=O)C(C)Sc1nc2c(c(=O)[nH]c(=O)n2C)n1C/C=C(/C)Cl (configuration not stated) | 12.6 µM [rising, partial curve] |
| Cn1c(N)c(C(=O)COC(=O)Cc2ccsc2)c(=O)n(C)c1=O | 0.126 µM [falling, single point] |
| COc1cccc2sc(Nc3nc(C)c(C(C)=O)s3)nc12 | 1.26 µM [rising, partial curve] |
| COCCCNc1oc(COc2ccc(Cl)cc2Cl)nc1C#N | 10 µM [rising, single point] |

| Compound | AC50 |
| --- | --- |
| CCOC(=O)c1ccc(OCC(=O)c2ccc(O)cc2O)cc1 | 3.16 µM [falling, full curve] |
| CN(C)Cc1ccccc1-c1cc(-n2ccnc2)ncn1 | 3.98 µM [rising, single point] |
| CCOC(=O)c1ccc(CNC(=O)c2cc3cccc(OC)c3oc2=O)o1 | 0.00316 µM [falling, full curve, poor fit] |
| Cn1c(=O)n(C)c2cc(NC(=O)c3cc4ccccc4o3)ccc21 | 10 µM [rising, partial curve] |
| COC(=O)c1cc(COC(=O)c2cccnc2SC)oc1C | 20 µM [rising, single point] |
| Cc1cccc(NC(=O)CN(C)S(=O)(=O)c2ccc(Cl)cc2)n1 | 12.6 µM [rising, single point] |
| Cc1cccc(-c2nsc(SCC(=O)NCc3ccco3)n2)c1 | 20 µM [falling, single point] |
| O=C(C1CCN(S(=O)(=O)c2cccc3nsnc23)CC1)N1CCN(c2ccccc2F)CC1 | 25.1 µM [falling, single point] |
| Cc1cccc(CNc2ccnc(-c3cccc(NS(C)(=O)=O)c3)n2)c1 | 5.01 µM [rising, single point] |
| N#Cc1sc2nc3c(c(-c4cccnc4)c2c1N)CCC3 | 25.1 µM [rising, single point] |
| CCOC(=O)c1sc(NC(=O)CSc2nncs2)c(C(=O)OCC)c1C | 2.51 µM [rising, full curve] |
| O=C1c2cccnc2C(Nc2ccc(S(=O)(=O)N3CCCCCC3)cc2)N1Cc1ccccc1 (configuration not stated) | 1.58 µM [rising, partial curve] |
| COc1cc2[nH]c3c(N4CCC(C(N)=O)CC4)ncnc3c2cc1OC | 3.16 µM [falling, partial curve] |
| COc1ccccc1C1C(C(=O)c2cc3ccccc3o2)=C(O)C(=O)N1CCN1CCOCC1 (configuration not stated) | 10 µM [falling, partial curve] |
| CCn1c2ccccc2c2nnc(SCC(=O)OCN3C(=O)c4ccccc4C3=O)nc21 | 0.00398 µM [falling, full curve] |
| Cc1ccccc1-n1nnnc1SCC(N)=O | 5.01 µM [falling, single point] |
| COc1cc(-c2nnc3sc(-c4ccco4)nn23)cc(OC)c1OC | 1 µM [rising, full curve] |
| Cc1ccnc(SCC(=O)Nc2oc(-c3ccccc3)c(-c3ccccc3)c2C#N)n1 | 6.31 µM [rising, partial curve] |
| CC(=O)Nc1cccc(-c2cnc3ccccc3n2)c1 | 10 µM [rising, single point] |
| Cc1nc(Nc2ccccc2)c2nc(-c3ccccc3)n(CCN3CCOCC3)c2n1 | 7.94 µM [rising, partial curve] |
| Cc1cc2c(c(=O)n1CCCn1ccnc1)C(c1ccco1)C(C#N)=C(N)O2 (configuration not stated) | 0.00316 µM [falling, full curve, poor fit] |

Filtered by structure, those above containing a COOH group (two)

| Compound | AC50 |
| --- | --- |
| O=C(O)CCC(=O)NCCn1c(-c2ccccc2)csc1=Nc1ccccc1 | 0.0631 µM [falling, full curve] |
| CCC(C(=O)O)n1c(C(F)(F)F)nc2ccccc21 (configuration not stated) | 31.6 µM [falling, single point] |

From PubChem BioAssay AID662 (National Center for Advancing Translational Sciences (NCATS), 2007)
